Results are given in words; binding and its absence hold for the method and conditions named. Some entries that bind do so weakly or less than the wild type.
Molecular target: claudin-4 (UniProt O14493)
Test: flow cytometry on HCC38 cells compared to HEK

The chains behind the UniProt entries cited, without tags or fusion partners.
UniProt O14493: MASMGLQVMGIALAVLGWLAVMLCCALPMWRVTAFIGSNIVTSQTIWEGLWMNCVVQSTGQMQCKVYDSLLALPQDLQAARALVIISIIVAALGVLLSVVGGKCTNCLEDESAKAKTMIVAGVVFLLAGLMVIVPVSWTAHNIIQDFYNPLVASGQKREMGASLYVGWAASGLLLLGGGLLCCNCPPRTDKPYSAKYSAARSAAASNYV

binding: binds
B1: claudin-4 targeting scFv EK01 (scFv, V domains shown, not shown: large carriers; small tags and cut ends)
VH: EVQLVQSGGGLIQPGGSLRLSCAASGFTVSSNYMSWVRQAPGKGLEWVSVIYSGGSTYYADSVKGRFTISRDNSKNTLYLQMNSLRAEDTAVYYCARDNPLSAFDIWGQGTLVTVSL
VL: DIVMTQTPSTLSASVGDRVTITCRASQSINSWLAWYQQKSGKAPKLLIYKASSLGSGVPSRFSGSGSDIEFTLTISSLQPDDFATYYCQQYDDLPLTFGGGTKVEIK

— patent US20250296975A1
